These results are taken from publication PMC8363638.

Experiment [1] addresses T1, GST-SPF45 (human), Q96I25.
T1 chain: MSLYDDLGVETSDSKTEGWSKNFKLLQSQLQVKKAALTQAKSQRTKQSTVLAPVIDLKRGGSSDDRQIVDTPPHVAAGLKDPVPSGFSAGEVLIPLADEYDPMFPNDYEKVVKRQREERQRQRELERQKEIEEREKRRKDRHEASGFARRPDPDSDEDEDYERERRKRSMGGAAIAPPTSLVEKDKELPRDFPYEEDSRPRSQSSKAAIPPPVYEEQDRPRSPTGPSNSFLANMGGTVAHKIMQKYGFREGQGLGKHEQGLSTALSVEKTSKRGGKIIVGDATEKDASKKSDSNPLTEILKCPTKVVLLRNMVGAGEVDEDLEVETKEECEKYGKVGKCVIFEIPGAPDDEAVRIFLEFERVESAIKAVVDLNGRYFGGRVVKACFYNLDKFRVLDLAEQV
Nature of the experiment: pull-down; GST fusion protein (5 µg) incubated at 30 °C for 15 min in 100 µL with 30% HeLa cell nuclear extract; RNase A treatment; NET2 buffer [50 mM Tris (pH 7.5), 150 mM NaCl, 0.05% Nonidet P-40]; Glutathione Sepharose 4B, 4 °C for 3 h; six washes; Western blotting; only the target purified. The conditions noted are these: remark: other sources report otherwise. (In general: Immunoblotting shows a protein as a band on a membrane.)

Experiment [2] has as its target T2, GST-SPF45 (human) (UniProt Q96I25).
T2 sequence: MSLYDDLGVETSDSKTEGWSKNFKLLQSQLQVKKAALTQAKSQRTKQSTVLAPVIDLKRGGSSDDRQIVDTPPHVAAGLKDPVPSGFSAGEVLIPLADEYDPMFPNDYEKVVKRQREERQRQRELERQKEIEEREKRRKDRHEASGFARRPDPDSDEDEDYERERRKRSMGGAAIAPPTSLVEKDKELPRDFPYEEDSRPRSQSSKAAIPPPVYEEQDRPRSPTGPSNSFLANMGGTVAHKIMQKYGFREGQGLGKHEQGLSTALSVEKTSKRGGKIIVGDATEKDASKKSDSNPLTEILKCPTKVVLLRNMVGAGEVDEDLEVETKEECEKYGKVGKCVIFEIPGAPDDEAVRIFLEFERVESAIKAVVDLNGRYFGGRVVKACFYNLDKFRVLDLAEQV
Described as above.

No constants are given. Whether binding was seen depends on the method and setting. In cells and extracts the contact can be indirect. Sequences can lack the tags named with a protein.

B1: SF1, Q15637 1-639 (protein)
chain: MATGANATPLDFPSKKRKRSRWNQDTMEQKTVIPGMPTVIPPGLTREQERAYIVQLQIEDLTRKLRTGDLGIPPNPEDRSPSPEPIYNSEGKRLNTREFRTRKKLEEERHNLITEMVALNPDFKPPADYKPPATRVSDKVMIPQDEYPEINFVGLLIGPRGNTLKNIEKECNAKIMIRGKGSVKEGKVGRKDGQMLPGEDEPLHALVTANTMENVKKAVEQIRNILKQGIETPEDQNDLRKMQLRELARLNGTLREDDNRILRPWQSSETRSITNTTVCTKCGGAGHIASDCKFQRPGDPQSAQDKARMDKEYLSLMAELGEAPVPASVGSTSGPATTPLASAPRPAAPANNPPPPSLMSTTQSRPPWMNSGPSESRPYHGMHGGGPGGPGGGPHSFPHPLPSLTGGHGGHPMQHNPNGPPPPWMQPPPPPMNQGPHPPGHHGPPPMDQYLGSTPVGSGVYRLHQGKGMMPPPPMGMMPPPPPPPSGQPPPPPSGPLPPWQQQQQQPPPPPPPSSSMASSTPLPWQQNTTTTTTSAGTGSIPPWQQQQAAAAASPGAPQMQGNPTMVPLPPGVQPPLPPGAPPPPPPPPPGSAGMMYAPPPPPPPPMDPSNFVTMMGMGVAGMPPFGMPPAPPPPPPQN
For B1, the binding entry in experiment [1] is reported as “no binding”.

B2: U2AF^35 (protein, UniProt Q01081 1-240)
chain: MAEYLASIFGTEKDKVNCSFYFKIGACRHGDRCSRLHNKPTFSQTIALLNIYRNPQNSSQSADGLRCAVSDVEMQEHYDEFFEEVFTEMEEKYGEVEEMNVCDNLGDHLVGNVYVKFRREEDAEKAVIDLNNRWFNGQPIHAELSPVTDFREACCRQYEMGECTRGGFCNFMHLKPISRELRRELYGRRRKKHRSRSRSRERRSRSRDRGRGGGGGGGGGGGGRERDRRRSRDRERSGRF
In the case of B2, the binding entry in experiment [2] is “no binding”.

B3: U2AF^65, P26368 1-475 (protein)
chain: MSDFDEFERQLNENKQERDKENRHRKRSHSRSRSRDRKRRSRSRDRRNRDQRSASRDRRRRSKPLTRGAKEEHGGLIRSPRHEKKKKVRKYWDVPPPGFEHITPMQYKAMQAAGQIPATALLPTMTPDGLAVTPTPVPVVGSQMTRQARRLYVGNIPFGITEEAMMDFFNAQMRLGGLTQAPGNPVLAVQINQDKNFAFLEFRSVDETTQAMAFDGIIFQGQSLKIRRPHDYQPLPGMSENPSVYVPGVVSTVVPDSAHKLFIGGLPNYLNDDQVKELLTSFGPLKAFNLVKDSATGLSKGYAFCEYVDINVTDQAIAGLNGMQLGDKKLLVQRASVGAKNATLVSPPSTINQTPVTLQVPGLMSSQVQMGGHPTEVLCLMNMVLPEELLDDEEYEEIVEDVRDECSKYGLVKSIEIPRPVDGVEVPGCGKIFVEFTSVFDCQKAMQGLTGRKFANRVVVTKYCDPDSYHRRDFW
Consider B3, for which, in experiment [1], the binding result is “no binding”.
